Measurements from patent US20240209029A1 (The University of Hong Kong, priority 2021, published 2024).

Test: general procedure: Fmoc solid-phase peptide synthesis; 2-chlorotrityl chloride resin
Details: for step yield: coupling step

hAdn-WM65
step yield: 34%

hAdn-WM77
step yield (over 2 steps (deFmoc and Ser/Thr ligation)): 30.8%

hAdn-WM77-b
isolated yield (whole synthesis, based on the resin loading): 8.9%
